In PMC11335265:
These are yes or no findings as the source states them, for the method shown. In cells and extracts the contact can be indirect. Binding calls can cover weak binding; strength is not graded here.

Protein sequences, listed by entry. Tags and fused reporters are not part of them. Lines headed by an entry give the natural chain unless they say otherwise; changes in a name come on top.
UniProt Q10743: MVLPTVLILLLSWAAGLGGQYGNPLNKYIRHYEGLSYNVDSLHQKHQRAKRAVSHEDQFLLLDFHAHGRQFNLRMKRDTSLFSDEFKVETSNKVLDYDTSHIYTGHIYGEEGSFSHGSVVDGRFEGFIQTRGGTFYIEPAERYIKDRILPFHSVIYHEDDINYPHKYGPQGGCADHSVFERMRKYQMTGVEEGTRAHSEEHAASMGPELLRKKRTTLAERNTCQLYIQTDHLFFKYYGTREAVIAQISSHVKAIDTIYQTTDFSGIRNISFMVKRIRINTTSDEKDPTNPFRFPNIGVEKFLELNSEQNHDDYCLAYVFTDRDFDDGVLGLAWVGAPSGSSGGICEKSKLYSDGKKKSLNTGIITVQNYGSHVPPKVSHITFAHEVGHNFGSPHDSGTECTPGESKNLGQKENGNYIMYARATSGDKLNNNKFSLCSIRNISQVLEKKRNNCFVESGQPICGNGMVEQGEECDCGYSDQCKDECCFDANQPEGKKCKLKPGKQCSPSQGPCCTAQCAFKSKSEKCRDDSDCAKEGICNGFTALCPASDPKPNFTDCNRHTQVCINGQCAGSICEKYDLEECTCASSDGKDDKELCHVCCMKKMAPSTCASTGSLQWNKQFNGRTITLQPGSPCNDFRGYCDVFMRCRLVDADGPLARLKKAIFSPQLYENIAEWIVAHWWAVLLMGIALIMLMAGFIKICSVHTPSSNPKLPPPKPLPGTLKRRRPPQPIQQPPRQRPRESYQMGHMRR
UniProt Q62747: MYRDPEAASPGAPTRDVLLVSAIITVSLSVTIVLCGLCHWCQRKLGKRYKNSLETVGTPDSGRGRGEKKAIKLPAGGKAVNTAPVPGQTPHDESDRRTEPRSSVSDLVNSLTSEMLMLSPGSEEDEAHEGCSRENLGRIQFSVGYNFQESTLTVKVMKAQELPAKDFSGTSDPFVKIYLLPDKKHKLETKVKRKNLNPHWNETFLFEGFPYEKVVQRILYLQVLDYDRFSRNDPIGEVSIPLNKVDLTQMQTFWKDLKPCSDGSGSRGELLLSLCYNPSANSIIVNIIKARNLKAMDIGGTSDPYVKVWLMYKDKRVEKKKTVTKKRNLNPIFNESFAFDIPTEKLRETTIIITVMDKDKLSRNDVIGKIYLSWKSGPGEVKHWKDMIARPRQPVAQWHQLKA

Molecular target: ADAM10, endogenous in primary rat hippocampal neurons (rat (endogenous in primary hippocampal neurons)) (UniProt Q10743)
Experiment: proximity ligation; Duolink In Situ kit on fixed mature (div17/18) hippocampal cultures with rabbit ADAM10 and mouse syt7 antibodies; antibody-negative controls; co-stained with phalloidin and bassoon

binding: binds
Substance: synaptotagmin 7 (syt7), endogenous in primary rat hippocampal neurons (from UniProt Q62747 1-403)
